According to PubChem BioAssay AID250 (DTP/NCI, 2004):
The list is a part of this screen's results and no random one: it is rich in T/C values a quarter to a half above the control, in often repeated tests (any T/C) and in doses without a T/C. Other doses and runs of a compound stand elsewhere. T/C gives the treated animals as a percentage of the vehicle group. Where survival is the endpoint, the PubChem record calls one and a half times the control and up active, and a quarter to a half above the control has no call in these data; cut-offs in other NCI protocols can differ. Schedule codes are those of the source, taken here to give the interval after Q, in days (D) or hours (H), and the number of doses after X. Some entries were tested several times; their values stand side by side, smallest first. Some T/C values carry the count of animals alive at the toxicity check (mostly the fifth day); without a count, all were alive then.

How the values were obtained:
[1] = tested on: BDF1 mice, L1210 leukemia sc, survival T/C; assay: NCI In Vivo Anticancer Drug Screen. Data for tumor model L1210 Leukemia (subcutaneous) in B6D2F1 (BDF1) mice; conditions: T/C endpoint: median survival time, vehicle: Klucel (hydroxypropylcellulose) (HPC), higher T/C = longer survival
Outline: (§1)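 Antitumor activity is assessed in mice with transplanted tumors by comparing the treated group (T) with the vehicle control group (C).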

[2] = tested on: BDF1 mice, L1210 leukemia sc; assay: as above; conditions: T/C endpoint: median survival time, higher T/C = longer survival
Outline: as §1

CC(CN1CC(=O)NC(=O)C1)N1CC(=O)NC(=O)C1 (stereo unspecified)
T/C ([1]; dose: 100.0 mg/kg/injection, schedule: Q04DX003 (sc), evaluated on day 7): 107 % of control | T/C ([1]; dose: 100.0 mg/kg/injection, schedule: Q04DX003 (sc), evaluated on day 30): 120 % of control | T/C ([1]; dose: 100.0 mg/kg/injection, schedule: Q04DX003 (sc), evaluated on day 45): 105 % of control | T/C ([1]; dose: 180.0 mg/kg/injection, schedule: Q04DX003 (oral), evaluated on day 5): 177 % of control | T/C ([1]; dose: 180.0 mg/kg/injection, schedule: Q04DX003 (oral), evaluated on day 34): 172 % of control | T/C ([1]; dose: 180.0 mg/kg/injection, schedule: Q04DX003 (oral), evaluated on day 45): 150 % of control | T/C ([1]; dose: 200.0 mg/kg/injection, schedule: Q04DX003 (sc), evaluated on day 7): 122 % of control | T/C ([1]; dose: 200.0 mg/kg/injection, schedule: Q04DX003 (sc), evaluated on day 45): 121 % of control | T/C ([1]; dose: 300.0 mg/kg/injection, schedule: Q04DX003 (oral), evaluated on day 5): 164 and 211 % of control | T/C ([1]; dose: 300.0 mg/kg/injection, schedule: Q04DX003 (oral), evaluated on day 34): 200 % of control | T/C ([1]; dose: 300.0 mg/kg/injection, schedule: Q04DX003 (oral), evaluated on day 45): 166 % of control | T/C ([1]; dose: 400.0 mg/kg/injection, schedule: Q04DX003 (sc), evaluated on day 7): 163 and 194 % of control | T/C ([1]; dose: 400.0 mg/kg/injection, schedule: Q04DX003 (sc), evaluated on day 30): 155 % of control | T/C ([1]; dose: 400.0 mg/kg/injection, schedule: Q04DX003 (sc), evaluated on day 45): 168 % of control | T/C ([1]; dose: 500.0 mg/kg/injection, schedule: Q04DX003 (oral), evaluated on day 5): 258 % of control | T/C ([1]; dose: 500.0 mg/kg/injection, schedule: Q04DX003 (oral), evaluated on day 34): 250 % of control | T/C ([1]; dose: 800.0 mg/kg/injection, schedule: Q04DX003 (sc), evaluated on day 7): 110 and 114 % of control | T/C ([1]; dose: 800.0 mg/kg/injection, schedule: Q04DX003 (sc), evaluated on day 30): 105 % of control | T/C ([1]; dose: 800.0 mg/kg/injection, schedule: Q04DX003 (sc), evaluated on day 45): 115 % of control | T/C ([2]; dose: 2.5 mg/kg/injection, schedule: Q03HX024 (sc), vehicle: Klucel (hydroxypropylcellulose) (HPC), evaluated on day 7): 137 % of control | T/C ([2]; dose: 2.5 mg/kg/injection, schedule: Q03HX024 (sc), vehicle: Klucel (hydroxypropylcellulose) (HPC), evaluated on day 30): 140 % of control | T/C ([2]; dose: 5.0 mg/kg/injection, schedule: Q03HX024 (sc), vehicle: Klucel (hydroxypropylcellulose) (HPC), evaluated on day 7): 141 % of control | T/C ([2]; dose: 5.0 mg/kg/injection, schedule: Q03HX024 (sc), vehicle: Klucel (hydroxypropylcellulose) (HPC), evaluated on day 27): 145 % of control | T/C ([2]; dose: 5.0 mg/kg/injection, schedule: Q03HX024 (sc), vehicle: Klucel (hydroxypropylcellulose) (HPC), evaluated on day 30): 140 % of control | T/C ([2]; dose: 12.5 mg/kg/injection, schedule: Q01DX009 (ip), vehicle: steroid suspending solution): 130 % of control | T/C ([2]; dose: 12.5 mg/kg/injection, schedule: Q01DX009 (sc), vehicle: steroid suspending solution): 130 % of control | T/C ([2]; dose: 25.0 mg/kg/injection, schedule: Q01DX009 (ip), vehicle: steroid suspending solution): 140 % of control | T/C ([2]; dose: 25.0 mg/kg/injection, schedule: Q01DX009 (sc), vehicle: steroid suspending solution): 140 % of control | T/C ([2]; dose: 32.0 mg/kg/injection, schedule: Q01DX009 (ip), vehicle: Klucel (hydroxypropylcellulose) (HPC), evaluated on day 20): 127 % of control | T/C ([2]; dose: 32.0 mg/kg/injection, schedule: Q01DX009 (ip), vehicle: Klucel (hydroxypropylcellulose) (HPC), evaluated on day 30): 143 % of control | T/C ([2]; dose: 32.0 mg/kg/injection, schedule: Q01DX009 (ip), vehicle: other): 132 % of control [8 of 10 alive] | T/C ([2]; dose: 39.0 mg/kg/injection, schedule: Q01DX009 (sc), vehicle: Klucel (hydroxypropylcellulose) (HPC)): 145 % of control | T/C ([2]; dose: 50.0 mg/kg/injection, schedule: Q01DX009 (sc), vehicle: steroid suspending solution): 135 % of control | T/C ([2]; dose: 64.0 mg/kg/injection, schedule: Q01DX009 (ip), vehicle: Klucel (hydroxypropylcellulose) (HPC)): 145 % of control | T/C ([2]; dose: 64.0 mg/kg/injection, schedule: Q01DX009 (ip), vehicle: other): 145 % of control | T/C ([2]; dose: 100.0 mg/kg/injection, schedule: Q04DX003 (ip), vehicle: Klucel (hydroxypropylcellulose) (HPC)): 131 % of control | T/C ([2]; dose: 100.0 mg/kg/injection, schedule: Q04DX003 (ip), vehicle: other): 139 % of control | T/C ([2]; dose: 100.0 mg/kg/injection, schedule: Q04DX003 (ip), vehicle: steroid suspending solution, evaluated on day 26): 135 % of control | T/C ([2]; dose: 100.0 mg/kg/injection, schedule: Q04DX003 (ip), vehicle: steroid suspending solution, evaluated on day 33): 140 % of control | T/C ([2]; dose: 100.0 mg/kg/injection, schedule: Q04DX003 (sc), vehicle: Klucel (hydroxypropylcellulose) (HPC), evaluated on day 7): 125 % of control | T/C ([2]; dose: 128.0 mg/kg/injection, schedule: Q01DX009 (ip), vehicle: Klucel (hydroxypropylcellulose) (HPC), evaluated on day 20): 138 % of control | T/C ([2]; dose: 128.0 mg/kg/injection, schedule: Q01DX009 (ip), vehicle: Klucel (hydroxypropylcellulose) (HPC), evaluated on day 30): 141 % of control | T/C ([2]; dose: 128.0 mg/kg/injection, schedule: Q01DX009 (ip), vehicle: other): 130 % of control | T/C ([2]; dose: 180.0 mg/kg/injection, schedule: Q01DX009 (sc), vehicle: Klucel (hydroxypropylcellulose) (HPC)): 140 % of control | T/C ([2]; dose: 180.0 mg/kg/injection, schedule: Q04DX003 (oral), vehicle: Klucel (hydroxypropylcellulose) (HPC), evaluated on day 5): 148 % of control | T/C ([2]; dose: 180.0 mg/kg/injection, schedule: Q04DX003 (sc), vehicle: Klucel (hydroxypropylcellulose) (HPC), evaluated on day 7): 130 % of control | T/C ([2]; dose: 180.0 mg/kg/injection, schedule: Q04DX003 (sc), vehicle: Klucel (hydroxypropylcellulose) (HPC), evaluated on day 30): 133 % of control | T/C ([2]; dose: 200.0 mg/kg/injection, schedule: Q01DX009 (sc), vehicle: steroid suspending solution): 135 % of control | T/C ([2]; dose: 200.0 mg/kg/injection, schedule: Q04DX003 (ip), vehicle: other): 141 % of control | T/C ([2]; dose: 200.0 mg/kg/injection, schedule: Q04DX003 (ip), vehicle: steroid suspending solution): 140 % of control | T/C ([2]; dose: 200.0 mg/kg/injection, schedule: Q04DX003 (sc), vehicle: Klucel (hydroxypropylcellulose) (HPC), evaluated on day 7): 132 % of control | T/C ([2]; dose: 200.0 mg/kg/injection, schedule: Q04DX003 (sc), vehicle: Klucel (hydroxypropylcellulose) (HPC), evaluated on day 30): 125 % of control | T/C ([2]; dose: 200.0 mg/kg/injection, schedule: Q04DX003 (sc), vehicle: steroid suspending solution): 140 % of control | T/C ([2]; dose: 500.0 mg/kg/injection, schedule: Q04DX003 (oral), vehicle: Klucel (hydroxypropylcellulose) (HPC), evaluated on day 5): 137 % of control | T/C ([2]; dose: 500.0 mg/kg/injection, schedule: Q04DX003 (oral), vehicle: Klucel (hydroxypropylcellulose) (HPC), evaluated on day 45): 133 % of control | T/C ([2]; dose: 833.0 mg/kg/injection, schedule: Q04DX003 (sc), vehicle: Klucel (hydroxypropylcellulose) (HPC)): 135 % of control
